Results published in patent US20150284467A1 (MAX DELBR CK CENTRUM F R MOLEKULARE MEDIZIN, published 2015).
Results are given in words; binding and its absence hold for the method and conditions named. Some entries that bind do so weakly or less than the wild type.

Chains of the proteins cited; added tags and fusions are not shown. Lines headed by an entry give the natural chain unless they say otherwise; changes in a name come on top.
UniProt Q02223: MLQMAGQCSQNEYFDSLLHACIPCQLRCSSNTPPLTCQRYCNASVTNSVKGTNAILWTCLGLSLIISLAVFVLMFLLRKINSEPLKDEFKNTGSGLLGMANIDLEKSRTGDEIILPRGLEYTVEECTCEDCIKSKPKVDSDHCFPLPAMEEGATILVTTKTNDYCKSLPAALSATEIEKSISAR

Assays:
[1] = target: extracellular domain of human CD269 (BCMA, TNFRSF17), purified (human) (UniProt Q02223); assay: ELISA on coated BCMA extracellular domain
[2] = target: extracellular domain of human CD269 (BCMA, TNFRSF17), purified (human) (UniProt Q02223); assay: SPR with BCMA at 1.1, 3.3, 10.0, 30.0 and 90.0 nM
[3] = target: extracellular domain of human CD269 (BCMA, TNFRSF17), purified (human) (UniProt Q02223); assay: ELISA on microtiter plates coated with the extracellular domain of human BCMA, detection with HRP-conjugated anti-human secondary antibody; x axis antibody (ng)
[4] = target: extracellular domain of human CD269 (BCMA, TNFRSF17), purified (human) (UniProt Q02223); assay: ELISA of the hybridoma J22.9 supernatant on BCMA-coated microtiter plates at the indicated time points (days by the legend)
[5] = target: extracellular domain of human CD269 (BCMA, TNFRSF17), purified (human) (UniProt Q02223); assay: ELISA on BCMA-coated plates
[6] = target: extracellular domain of human CD269 (BCMA, TNFRSF17), purified (human) (UniProt Q02223); assay: crystal structure; complex isolated by size exclusion chromatography

B1: J22.9-xi chimeric antibody (mouse VH/VL of hybridoma J22.9 on human IgG1 and kappa constant domains) (antibody, V domains shown)
VH: QVQLQQSGGGLVQPGGSLKLSCAASGIDFSRYWMSWVRRAPGKGLEWIGEINPDSSTINYAPSLKDKFIISRDNAKNTLYLQMSKVRSEDTALYYCASLYYDYGDAMDYWGQGTSVTVSS
VL: DIVMTQSQRFMTTSVGDRVSVTCKASQSVDSNVAWYQQKPRQSPKALIFSASLRFSGVPARFTGSGSGTDFTLTISNLQSEDLAEYFCQQYNNYPLTFGAGTKLELKR
modifications: N-linked oligosaccharide chain at Asn297
notes: Full length IgG made in 293-6E cells; the constant domains are marked 'Used in J22.9-xi'
**Q.** What does the source list for B1?
**A.** binding [1]: binds; binding [2]: binds; binding [3]: binds

B2: mouse anti-BCMA antibody secreted by hybridoma J22.9 (supernatant) (antibody, V domains shown)
VH: B1 VH
VL: B1 VL
**Q.** B2 was tested. Which binding [4] did it give?
**A.** binds

**Q.** And the binding [5]?
**A.** binds

B3: Fab fragment prepared from J22.9-xi (Fab, V domains shown, not shown: a dimerising Fc or GST)
VH: B1 VH
VL: B1 VL
modifications: reduced cysteines alkylated with iodoacetamide
**Q.** Which binding [6] does the source give for B3 here?
**A.** binds
